Experimental data: PubChem BioAssay AID504467 (National Center for Advancing Translational Sciences (NCATS), 2011)
About 7,700 (2.3%) of roughly 330,000 compounds were called active. The inconclusive results got no clear call from the source; some entries with a clear call stand among them for comparison. Calls follow the shape of the dose curve; as a rule, active = well fitted inhibition curve with a large enough effect; inconclusive = small, poorly fitted or top-dose-only effect, or effect the other way; inactive = flat fitted curve, though single readings scatter. Potencies of inconclusive entries are doubtful fits and often do not repeat.

Test: qHTS screen for small molecules that inhibit ELG1-dependent DNA repair in human embryonic kidney (HEK293T) cells expressing luciferase-tagged ELG1; also: nearly all actives have a fitted effect of over 55% in size
Settings: HEK293T ELG1-luciferase reporter, luminescence, 16 h, DNA damage induced by 5-fluorouridine; series mostly up to 46.1 µM
Procedure, shortened: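 Quantitative HTS, concentration-response format. 2,000 cells/well co-treated with 5-fluorouridine and compound, 16 hr in 5% CO2 at 37 °C; ONE-Glo luminescence read after 30 min.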
Potency is read from the fitted curve at half-maximal effect.

Row | Structure (SMILES) | Potency
1 | O=C(c1ccc(S(=O)(=O)N2CCCCCC2)cc1)N1CCC(CN2C(=O)c3cccc4cccc(c34)C2=O)CC1 | inconclusive: 14.1 µM [activator, single point]
2 | Cc1cc(NC(=O)c2cnn3c(C(F)(F)F)cc(-c4ccc(Br)cc4)nc23)no1 | active: 14.6 µM
3 | Cc1nc2ccccc2n1Cc1ccccc1Br | inactive
4 | CC(C)c1ccc(NC(=O)C2CCCN(S(=O)(=O)c3ccc4c(c3)C(C)(C)C(=O)N4C)C2)cc1 (centres undefined) | inconclusive: 25.9 µM [inhibitor, partial curve]
5 | COc1ccc(/C=N/NC(=O)c2ccn[nH]2)cc1CN1CCOCC1 | inconclusive: 23.1 µM [activator, partial curve]
6 | Cc1cc(NC(=O)CSc2nc3cc(Cl)ccc3c(=O)n2C(C)C)no1 | inactive
7 | O=C1OC(c2ccc(F)cc2)=N/C1=C\C=C/c1ccccc1 | inactive
8 | COc1ccc(CN2CCN(C(=O)CCC(=O)Nc3nnc(CC(C)C)s3)CC2)cc1F | active: 5.8 µM
9 | Fc1ccc(C2=CC(c3ccco3)n3nnnc3N2)cc1 (centres undefined) | inactive
10 | CCOc1ccc(/C=C/C(=O)c2c(O)c3ccccc3oc2=O)cc1 | inactive
11 | COc1ccccc1Nc1nn2c(=O)c3ccc(C(=O)N4CCCC(C)C4)cc3nc2s1 (centres undefined) | inconclusive: 20.6 µM [inhibitor, single point]
12 | CN1CCc2c(sc3c2C(=O)NC(c2cn(Cc4ccccc4)c4ccccc24)N3)C1 (centres undefined) | inconclusive: 25.9 µM [inhibitor, partial curve, poor fit]
13 | CC(C)(C)C1=CC(=O)C(N2CCOCC2)=CC1=O | inactive
14 | Cc1nn(-c2ccccc2)c(Cl)c1/C=C1\SC(=S)N(CCCCCC(=O)O)C1=O | inactive
15 | Cc1cccc(-c2nc(C#N)c(NCc3ccco3)o2)c1 | inconclusive: 3.26 µM [activator, partial curve]
16 | CCOC(=O)c1sc(NC(=O)c2ccncc2)c(C#N)c1C | active: 20.6 µM
17 | Cc1ccc(-c2nnc(SCC(=O)N/N=C/c3cccs3)n2-c2ccc(C)cc2)cc1 | inconclusive: 23.1 µM [inhibitor, partial curve]
18 | COc1ccc(C(=O)OCC(=O)NCc2ccccc2)c(OC)c1OC | inconclusive: 23.1 µM [inhibitor, partial curve, poor fit]
19 | COc1ccc(NCC(=O)n2c(C)c(C)c3ccccc32)cc1 | inactive
20 | CN(C)S(=O)(=O)N1CCC(Oc2cccc(C(=O)NC3CCOC3)c2)CC1 (centres undefined) | inactive
21 | Nc1ccc(N2CCN(c3ccc(F)cc3)CC2)cc1 | active: 6.51 µM
22 | Cc1ccc(C(=O)N2CCOCC2)c(F)c1F | inconclusive: 18.3 µM [activator, partial curve, poor fit]

Row | Structure (SMILES) | Potency
23 | Cn1ncc2c(O/N=C(\N)c3ccc(C(F)(F)F)cc3)ncnc21 | inconclusive: 29.1 µM [inhibitor, single point]
24 | COc1cccc(C(=O)NCCS(=O)(=O)NCc2cccs2)c1 | inconclusive: 25.9 µM [activator, single point]
25 | CCOc1ccc2cc(/C=C/C(=O)c3ccco3)c(Cl)nc2c1 | inconclusive: 13 µM [activator, partial curve]
26 | COc1cccc(-c2cc(C(F)(F)F)nc(N3CCCCC3)n2)c1 | inactive
27 | Cc1cccc(NC(=S)NNC(=O)c2ccc(O)cc2O)c1C | active: 10.3 µM
28 | COC(=O)c1cccc(-c2ccc(/C=N/N3C(=O)C4C5C=CC(C6CC56)C4C3=O)o2)c1 (centres undefined) | inconclusive: 29.1 µM [inhibitor, single point]
29 | CC[C@]12c3[nH]c4cc(CCC(=O)N(C)C)ccc4c3CCN1C(=O)[C@@H](CC(=O)NC/C=C(\C)CCC=C(C)C)C[C@@H]2C(=O)N1CCN(C(=O)c2ccco2)CC1 | inconclusive: 4.11 µM [activator, single point]
30 | O=[N+]([O-])c1cccc(-c2nc(-c3ccncc3)no2)c1 | inconclusive: 14.6 µM [activator, partial curve, poor fit]
31 | COc1ccc2c(CCNC(=O)c3ccc([N+](=O)[O-])cc3)c[nH]c2c1 | inconclusive: 29.1 µM [inhibitor, single point]
32 | COc1cccc(N2CCN(C(=O)c3cc4c(s3)CCCCC4)CC2)c1 | inconclusive: 18.3 µM [activator, single point]
33 | Cn1cc(C(=O)C(=O)N2CCc3ccccc32)c2ccccc21 | inconclusive: 3.26 µM [activator, single point]
34 | Cc1cc(C(=O)CSc2ncnc3ccccc23)c(C)n1C1CC1 | inconclusive: 1.46 µM [activator, full curve, poor fit]
35 | Cc1c(NC(=O)CC(=O)Nc2c(C)n(C)n(-c3ccccc3)c2=O)c(=O)n(-c2ccccc2)n1C | inactive
36 | Cc1cccc(N2CCN(C(=O)c3cc4cc(F)ccc4[nH]3)CC2)c1C | inconclusive: 29.1 µM [inhibitor, single point]
37 | O=C(CCCc1ccccc1)NCCc1ccc(F)cc1 | inconclusive: 35.5 µM [activator, single point]
38 | O=C(O)c1ccc(N/N=C2/CCCc3ccccc32)cc1 | inconclusive: 18.3 µM [activator, partial curve]
39 | Nc1ccc(C(=O)N2CCN(S(=O)(=O)c3ccc4c(c3)OCCO4)CC2)cc1[N+](=O)[O-] | inconclusive: 11.6 µM [inhibitor, partial curve, poor fit]
40 | Cc1c(C(=O)Oc2cccc3cccnc23)cccc1[N+](=O)[O-] | inactive
41 | CSc1nc(N)c(C(=O)NC2CCCCC2)s1 | inconclusive: 18.3 µM [activator, partial curve]
42 | COc1ccc(C(N)c2nccc3cc(OC)c(OC)cc23)cc1OC (centres undefined) | inconclusive: 14.6 µM [inhibitor, partial curve, poor fit]
43 | CCN(CC)C(=O)CSc1nc2cc(OC)c(OC)cc2c(=O)n1Cc1ccc(Cl)cc1 | inconclusive: 16.4 µM [inhibitor, partial curve]
44 | NNC(=O)c1oc2ccccc2c1-n1cccc1 | inconclusive: 29.1 µM [inhibitor, single point]

Rewritten tab-delimited: part of the list above.
Row	Structure (SMILES)	Potency
15	Cc1cccc(-c2nc(C#N)c(NCc3ccco3)o2)c1	inconclusive: 3.26 µM [activator, partial curve]
16	CCOC(=O)c1sc(NC(=O)c2ccncc2)c(C#N)c1C	active: 20.6 µM
